Results are given in words; binding and its absence hold for the method and conditions named. For part of these data: Binding seen in cells or lysates may run through a third protein. Some entries that bind do so weakly or less than the wild type.
Columns and labels:
GST-αCP1A (human) [1] = experiment: GST pull-down, SDS-PAGE (figure legend)
GST-αCP1A (human) [2] = experiment: GST pull-down, radiolabeled in vitro translated HuR on GST-αCP1A glutathione beads, SDS-PAGE
[3] = biological target: HuR bait (Matchmaker Two-Hybrid System 3) (human) (UniProt Q15717); experiment: yeast two-hybrid screen, HuR as bait against hypoxic HEK 293 cDNA bank

By UniProt entry, the sequences of proteins in these tests, tags left out.
UniProt Q15717: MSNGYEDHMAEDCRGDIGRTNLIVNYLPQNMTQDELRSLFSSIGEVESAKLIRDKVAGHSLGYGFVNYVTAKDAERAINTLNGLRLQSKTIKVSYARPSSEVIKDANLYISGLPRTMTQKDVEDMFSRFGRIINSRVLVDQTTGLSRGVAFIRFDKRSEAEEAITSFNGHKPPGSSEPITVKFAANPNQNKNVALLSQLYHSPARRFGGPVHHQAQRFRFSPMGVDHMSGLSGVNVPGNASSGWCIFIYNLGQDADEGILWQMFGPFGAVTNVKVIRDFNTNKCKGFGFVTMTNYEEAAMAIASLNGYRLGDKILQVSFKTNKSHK
UniProt Q15365: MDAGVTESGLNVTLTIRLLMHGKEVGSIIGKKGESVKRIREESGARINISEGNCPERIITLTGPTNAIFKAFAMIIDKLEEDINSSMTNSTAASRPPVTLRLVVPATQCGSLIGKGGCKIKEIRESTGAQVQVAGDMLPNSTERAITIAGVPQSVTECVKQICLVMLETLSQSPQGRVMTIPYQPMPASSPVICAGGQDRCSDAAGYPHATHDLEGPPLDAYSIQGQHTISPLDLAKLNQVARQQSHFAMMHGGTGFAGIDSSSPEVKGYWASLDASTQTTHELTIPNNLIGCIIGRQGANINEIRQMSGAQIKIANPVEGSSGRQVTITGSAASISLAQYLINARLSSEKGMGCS

Row | Substance | binding (GST-αCP1A (human) [1]) | binding (GST-αCP1A (human) [2]) | binding [3]
1 | HuR (radiolabeled, in vitro transcribed-translated from pcDNA3-HuR) (from UniProt Q15717 1-326) | binds | binds | –
2 | αCP1 clones of the hypoxic HEK 293 cDNA bank (two-hybrid prey) (from UniProt Q15365 1-356) | – | – | binds
